Data as given in PubChem BioAssay AID1259314 (Drosophila RNAi Screening Center, 2017)

- Purpose: 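Transmembrane protein genes affecting ATP after manganese overload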 (primary screen)
- Cell system: Drosophila S2R+ cells
- Reagent: long dsRNA against Drosophila genes
- Duration: 5 days (4 days knock-down, then 1 day metal exposure)
- Challenge: manganese chloride added to 15 mM for 24 hours
- Read-out: 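Cellular ATP measured by luciferase light, scaled to the plate mean, averaged across replicates and z-scored over plates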
- Scale: mean ATP z-score: higher = more ATP than the plate average, more viable cells under manganese
- Rule for the call: 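Called active when the mean ATP z-score is above 1.5 or below -1.5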
- Calls: active = strong ATP change, up or down; inactive = no strong ATP change
The deposit covers about 3,100 reagents; below is an unselected part. Of all reagents, 289 (9.3%) got an active call. 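Active includes both higher and lower ATP than plate average; check the z-score sign for direction.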 Unmarked entries are inactive. Reagents against one gene are numbered here. Not stated in the record: the amount of reagent.

gene knocked down,reagent,mean ATP z-score
Ir67b (Ionotropic receptor 67b),1,-1.43
CG31793,1,0.717
CG31793,2,-0.921
Rh3 (Rhodopsin 3),1,0.307
Egfr (Epidermal growth factor receptor),1,-0.128
Egfr (Epidermal growth factor receptor),2,-0.445
Egfr (Epidermal growth factor receptor),3,0.0501
Egfr (Epidermal growth factor receptor),4,-0.41
CG14971,1,-0.433
ppk27 (pickpocket 27),1,-0.316
Ctns (Cystinosin),1,-0.969
Ctns (Cystinosin),2,1.07
CG10019,1,-0.0482
CG14219,1,1.38
CG14219,2,0.787
rdgB (retinal degeneration B),1,0.797
rdgB (retinal degeneration B),2,-0.613
Gr10a (Gustatory receptor 10a),1,-0.676
Gr10a (Gustatory receptor 10a),2,0.607
GluRIIC (Glutamate receptor IIC),1,0.342
CG46441,1,0.127
CG46441,2,-0.536
brv1 (brivido-1),1,-0.515
Ac76E (Adenylyl cyclase 76E),1,-1.42
Ac76E (Adenylyl cyclase 76E),2,2.17 (active)
Or59b (Odorant receptor 59b),1,0.51
CG31141,1,-1.31
CG31141,2,0.755
sip3 (septin interacting protein 3),1,0.0946
sip3 (septin interacting protein 3),2,-0.826
CG13426,1,0.236
Gr92a (Gustatory receptor 92a),1,-0.0917
Gr92a (Gustatory receptor 92a),2,-0.156
Nup98-96 (Nucleoporin 98-96kD),1,0.119
Nup98-96 (Nucleoporin 98-96kD),2,-1.09
Shaw (Shaker cognate w),1,2.86 (active)
Shaw (Shaker cognate w),2,0.453
Shaw (Shaker cognate w),3,0.96
Ir60a (Ionotropic receptor 60a),1,0.289
Ir60a (Ionotropic receptor 60a),2,0.619
Octbeta2R (Octopamine beta2 receptor),1,-0.562
Octbeta2R (Octopamine beta2 receptor),2,-0.718
Octbeta2R (Octopamine beta2 receptor),3,0.488
CG2938,1,-1.69 (active)
CG13893,1,0.852
CG13893,2,1
CG30340,1,-0.31
hbs (hibris),1,-0.249
hbs (hibris),2,-0.945
ppk21 (pickpocket 21),1,0.445
ppk21 (pickpocket 21),2,-0.0222
Or67a (Odorant receptor 67a),1,-0.94
Gr5a (Gustatory receptor 5a),1,0.186
CG5281,1,-0.172
CG5281,2,-0.251
CG1090,1,0.126
CG11961,1,3.74 (active)
CG11961,2,-0.0836
heix (heixuedian),1,0.895
heix (heixuedian),2,0.405
NijA (Ninjurin A),1,1.76 (active)
ppk9 (pickpocket 9),1,-0.723
ppk9 (pickpocket 9),2,-1.34
CG31272,1,0.303
CG31272,2,-0.63
sesB (stress-sensitive B),1,-1.21
sesB (stress-sensitive B),2,-0.131
fz3 (frizzled 3),1,0.0601
fz3 (frizzled 3),2,2.05 (active)
rho (rhomboid),1,1.28
rho (rhomboid),2,0.354
pHCl-2 (pH-sensitive chloride channel 2),1,0.367
Ir25a (Ionotropic receptor 25a),1,1.45
Ir25a (Ionotropic receptor 25a),2,-0.797
CG3036,1,-1.22
CG3036,2,-0.141

No new results follow: an excerpt of the list.
gene knocked down,reagent,mean ATP z-score
rdgB (retinal degeneration B),1,0.797
rdgB (retinal degeneration B),2,-0.613
Gr10a (Gustatory receptor 10a),1,-0.676
Gr10a (Gustatory receptor 10a),2,0.607
GluRIIC (Glutamate receptor IIC),1,0.342
CG46441,1,0.127
